Laboratory results from PMC3117880.
Results are given in words; binding and its absence hold for the method and conditions named. Binding seen in cells or lysates may run through a third protein. Some results given as binding are weak or reduced against the parent protein; the word gives no strength.

By UniProt entry, the sequences of proteins in these tests, tags left out.
UniProt P30280: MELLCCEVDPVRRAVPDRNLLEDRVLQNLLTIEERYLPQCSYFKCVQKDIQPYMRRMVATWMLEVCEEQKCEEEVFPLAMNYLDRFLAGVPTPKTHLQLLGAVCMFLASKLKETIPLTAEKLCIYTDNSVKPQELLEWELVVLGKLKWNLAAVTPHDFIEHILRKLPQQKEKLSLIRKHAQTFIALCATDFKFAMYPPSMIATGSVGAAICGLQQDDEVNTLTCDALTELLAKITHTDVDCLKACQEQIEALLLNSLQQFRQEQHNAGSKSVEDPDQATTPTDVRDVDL
UniProt Q64261: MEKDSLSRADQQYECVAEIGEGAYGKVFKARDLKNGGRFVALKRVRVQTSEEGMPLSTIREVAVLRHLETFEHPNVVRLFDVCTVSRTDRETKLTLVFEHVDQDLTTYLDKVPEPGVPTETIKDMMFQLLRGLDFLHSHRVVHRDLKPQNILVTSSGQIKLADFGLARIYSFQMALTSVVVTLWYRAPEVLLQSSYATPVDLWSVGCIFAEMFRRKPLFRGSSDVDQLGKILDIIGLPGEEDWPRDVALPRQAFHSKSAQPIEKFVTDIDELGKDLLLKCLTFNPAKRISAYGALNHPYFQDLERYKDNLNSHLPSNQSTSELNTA

Key:
[1] = biological target: T1, cyclin D3 (mouse (endogenous in foetal liver HSPCs)) (UniProt P30282); test: co-IP; lysates of equal numbers of sorted GFP+ WT HSPCs expressing Fbxo7 or the empty MSCV vector, in HB buffer (50 mM Hepes pH 7.4, 150 mM NaCl, 20 mM EDTA, 1 mM DTT, 0.5% Triton-X-100); immunoprecipitated at 4°C for 4 hrs with anti-cyclin D2 or anti-cyclin D3, Protein A/G Plus agarose; western blot for Cdk6
T1 sequence: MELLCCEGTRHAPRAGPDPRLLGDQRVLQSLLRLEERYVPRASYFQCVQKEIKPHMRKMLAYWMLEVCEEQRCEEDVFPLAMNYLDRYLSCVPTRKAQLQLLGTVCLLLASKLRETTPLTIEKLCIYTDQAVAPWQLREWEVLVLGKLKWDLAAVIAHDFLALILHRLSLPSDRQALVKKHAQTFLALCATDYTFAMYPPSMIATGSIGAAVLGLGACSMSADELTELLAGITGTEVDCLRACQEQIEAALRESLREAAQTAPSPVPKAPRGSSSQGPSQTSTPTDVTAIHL

[2] = biological target: cyclin D2 (mouse (endogenous in foetal liver HSPCs)) (UniProt P30280); test: as above

binding [1]: binds
binding [2]: binds
Substance: Cdk6 (from UniProt Q64261 1-326)
